From patent publication US20100092505A1 (priority 2005, published 2010) come the findings set out here.

Where no end group is shown, it is not given here. The star is where a group is joined. Biotin = O=C1N[C@H]2[C@H](CS[C@H]2CCCCC(=O)*)N1

This data set can be described thus: general procedure: Fmoc solid-phase peptide synthesis; Fmoc-Linker AM-Champion, 1% cross-linked (Biosearch Technologies), PEG-PS based resin with modified Rink linker; HBTU/DIEA. Particulars: for oxidative folding yield: oxidative folding step, overall yield of the oxidation reaction, several disulfide bridges, sequence written open.

Turning to “Biotin-GCCGGIKKEIEAIKKEQEAIKKKIEAIEK (cysteine pairing not given here)”, the “final HPLC purity” value (whole synthesis, analytical HPLC, Phenomenex Jupiter C4 column) is listed as “purity 70%”. Turning to (Biotin-CCIPN17)3, the oxidative folding yield result was “more than 80%”. Regarding “(CCGGIKKEIEAIKKEQEAIKKKIEAIEKLLQLTVWGIKQLQARIL)3 (disulfide-linked trimer)”, the oxidative folding yield entry was “more than 80%”. The same measure, in the same setting: as for (CCIPN17)3, the entry is “more than 80%”.
